Laboratory results: the supplement of paper PMC8728848
Some of the results follow.

Columns and labels:
Experiment in all cases: glycan array binding signal (z-score within array); higher = stronger binding
Conditions in all cases: glycan notation: IUPAC condensed, linker removed
Gal(b1-4)Glc = biological target: Gal(b1-4)Glc
Outline: (§1)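 Glycan array binding is given as a within-array Z-score, which can be read as non-binding when negative. The arrays, 3228 of them, came from the Consortium for Functional Glycomics database and were retained only where the protein sequence was available. Z-scores were averaged across arrays of the same protein sequence at different concentrations or buffers and across linkers.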

Gal(b1-4)Glc6S = biological target: Gal(b1-4)Glc6S
Outline: as §1

Gal(b1-4)GlcNAc = biological target: Gal(b1-4)GlcNAc
Outline: as §1

[1] = biological target: Gal(b1-4)GlcNAc(a1-6)Gal(b1-4)GlcNAc
Outline: as §1

Gal(b1-4)GlcNAc(b1-2)Man = biological target: Gal(b1-4)GlcNAc(b1-2)Man
Outline: as §1

[2] = biological target: Gal(b1-4)GlcNAc(b1-2)Man(a1-3)Man(b1-4)GlcNAc(b1-4)GlcNAc
Outline: as §1

[3] = biological target: Gal(b1-4)GlcNAc(b1-2)Man(a1-3)[Gal(b1-4)GlcNAc(b1-2)Man(a1-6)]Man(b1-4)GlcNAc(b1-4)GlcNAc
Outline: as §1

[4] = biological target: Gal(b1-4)GlcNAc(b1-2)Man(a1-3)[Gal(b1-4)GlcNAc(b1-2)Man(a1-6)]Man(b1-4)GlcNAc(b1-4)[Fuc(a1-6)]GlcNAc
Outline: as §1

[5] = biological target: Gal(b1-4)GlcNAc(b1-2)Man(a1-3)[Gal(b1-4)GlcNAc(b1-2)Man(a1-6)][Gal(b1-4)GlcNAc(b1-4)]Man(b1-4)GlcNAc(b1-4)[Fuc(a1-6)]GlcNAc
Outline: as §1

[6] = biological target: Gal(b1-4)GlcNAc(b1-2)Man(a1-3)[Gal(b1-4)GlcNAc(b1-2)Man(a1-6)][GlcNAc(b1-4)]Man(b1-4)GlcNAc(b1-4)[Fuc(a1-6)]GlcNAc
Outline: as §1

[7] = biological target: Gal(b1-4)GlcNAc(b1-2)Man(a1-3)[GlcNAc(b1-2)Man(a1-6)]Man(b1-4)GlcNAc(b1-4)GlcNAc
Outline: as §1

[8] = biological target: Gal(b1-4)GlcNAc(b1-2)Man(a1-3)[GlcNAc(b1-4)][Gal(b1-4)GlcNAc(b1-2)Man(a1-6)]Man(b1-4)GlcNAc(b1-4)GlcNAc
Outline: as §1

[9] = biological target: Gal(b1-4)GlcNAc(b1-2)Man(a1-3)[Man(a1-6)]Man(b1-4)GlcNAc(b1-4)GlcNAc
Outline: as §1

[10] = biological target: Gal(b1-4)GlcNAc(b1-2)Man(a1-6)Man(b1-4)GlcNAc(b1-4)GlcNAc
Outline: as §1

[11] = biological target: Gal(b1-4)GlcNAc(b1-2)Man(a1-6)[GlcNAc(b1-2)Man(a1-3)]Man(b1-4)GlcNAc(b1-4)GlcNAc
Outline: as §1

[12] = biological target: Gal(b1-4)GlcNAc(b1-2)Man(a1-6)[Man(a1-3)]Man(b1-4)GlcNAc(b1-4)GlcNAc
Outline: as §1

[13] = biological target: Gal(b1-4)GlcNAc(b1-2)[Gal(b1-4)GlcNAc(b1-4)]Man(a1-3)[Gal(b1-4)GlcNAc(b1-2)Man(a1-6)]Man(b1-4)GlcNAc(b1-4)GlcNAc
Outline: as §1

[14] = biological target: Gal(b1-4)GlcNAc(b1-2)[Gal(b1-4)GlcNAc(b1-4)]Man(a1-3)[Gal(b1-4)GlcNAc(b1-2)[Gal(b1-4)GlcNAc(b1-6)]Man(a1-6)]Man(b1-4)GlcNAc(b1-4)GlcNAc
Outline: as §1

[15] = biological target: Gal(b1-4)GlcNAc(b1-2)[Gal(b1-4)GlcNAc(b1-4)]Man(a1-3)[GlcNAc(b1-4)][Gal(b1-4)GlcNAc(b1-2)Man(a1-6)]Man(b1-4)GlcNAc(b1-4)GlcNAc
Outline: as §1

[16] = biological target: Gal(b1-4)GlcNAc(b1-2)[Gal(b1-4)GlcNAc(b1-4)]Man(a1-3)[GlcNAc(b1-4)][Gal(b1-4)GlcNAc(b1-2)[Gal(b1-4)GlcNAc(b1-6)]Man(a1-6)]Man(b1-4)GlcNAc(b1-4)GlcNAc
Outline: as §1

[17] = biological target: Gal(b1-4)GlcNAc(b1-2)[Gal(b1-4)GlcNAc(b1-6)]Man(a1-6)[Gal(b1-4)GlcNAc(b1-2)Man(a1-3)]Man(b1-4)GlcNAc(b1-4)GlcNAc
Outline: as §1

[18] = biological target: Gal(b1-4)GlcNAc(b1-2)[Gal(b1-4)GlcNAc(b1-6)]Man(a1-6)[Gal(b1-4)GlcNAc(b1-2)Man(a1-3)]Man(b1-4)GlcNAc(b1-4)[Fuc(a1-6)]GlcNAc
Outline: as §1

B1: LlpB (Pseudomonas fluorescens) (protein)
chain: MGSSHHHHHHSSGLVPRGSHMASSGFRIILFNSANNGTAILPPRNCLVAGQYLESPSKRYKLILEADGNLRLYDNGVPIWVADSSVPYTYVDNRPNTNLVTCFYMQGSAFLVDRVGSRTWATIGDWIDGAADRAYLQVQDDGNVVVVDGVPRWARFGFTPAALPNRGVFYPDHGTGPLPSFPVWSWTF
Gal(b1-4)Glc
  glycan array binding signal (z-score): -0.337
Gal(b1-4)Glc6S
  glycan array binding signal (z-score): -0.442
Gal(b1-4)GlcNAc
  glycan array binding signal (z-score): 0.117
[1]
  glycan array binding signal (z-score): -0.411
Gal(b1-4)GlcNAc(b1-2)Man
  glycan array binding signal (z-score): 3.72
[2]
  glycan array binding signal (z-score): 1.16
[3]
  glycan array binding signal (z-score): -1.33
[4]
  glycan array binding signal (z-score): -1.12
[5]
  glycan array binding signal (z-score): -1.71
[6]
  glycan array binding signal (z-score): -1.69
[7]
  glycan array binding signal (z-score): -1.02
[8]
  glycan array binding signal (z-score): -0.624
[9]
  glycan array binding signal (z-score): 0.362
[10]
  glycan array binding signal (z-score): -0.158
[11]
  glycan array binding signal (z-score): -0.351
[12]
  glycan array binding signal (z-score): -0.481
[13]
  glycan array binding signal (z-score): -1.23
[14]
  glycan array binding signal (z-score): -0.308
[15]
  glycan array binding signal (z-score): -0.213
[16]
  glycan array binding signal (z-score): 0.932
[17]
  glycan array binding signal (z-score): -0.828
[18]
  glycan array binding signal (z-score): 1.11
